Some results were stated once for a whole list of compounds, not compound by compound. At least one peptide structure holds a part that was inferred or is arguable (an end, a ring closure or a residue). Where a SMILES comes first, the peptide text is derived from it. [ ]: non-standard residue; d: D form. The star is where a group is joined. dPhe(3,4-Cl2) = N[C@H](Cc1ccc(Cl)c(Cl)c1)C(=O)O; dPhe(4-Me) = Cc1ccc(C[C@@H](N)C(=O)O)cc1; dPhe(4-F) = N[C@H](Cc1ccc(F)cc1)C(=O)O; d2Nal = N[C@H](Cc1ccc2ccccc2c1)C(=O)O; d(hArg) = N=C(N)NCCCC[C@@H](N)C(=O)O; dAgb = N=C(N)NCC[C@@H](N)C(=O)O; NH(thiazol-2-yl) = c1csc(N*)n1; d2Thi = N[C@H](Cc1cccs1)C(=O)O; NH(3-picolyl) = c1cncc(CN*)c1; NH(4-picolyl) = c1cc(CN*)ccn1; N(CH2CH2)2NH = C1CN(*)CCN1; dNle = CCCC[C@@H](N)C(=O)O; Morpholide = C1CN(*)CCO1; Piperidide = C1CCN(*)CC1; X5 = NC1CCC(N*)CC1; NHBu = CCCCN*
system: conscious male ICR mice; test: Mouse acetic acid writhing test (WT); assay type: in vivo; settings: result in words
Description: Selected peptides that are identified in Tables A-G have been further specifically subjected to in vivo testing for determination of duration of action of their opioid properties, and the results are reported in Table H hereinafter. The peptide numbers correspond to those in the earlier tables and the figures with regard to μ/K ratio are simply carried over for reference purposes. The in vivo testing is carried out using a mouse writhing test (WT) that is well-suited for determining the length of duration of antinociceptive biological activity. This test is described in detail in an article by G. A. Bentley et al., Br. J. Phamac., 73:325-332, 1981, and it employs conscious male ICR mice which are purchased from Harlan and which weigh between 20 and 30 grams. The mice are fasted for 12 to 16 hours prior to beginning the test. The nociceptive behavior, i.e. writhing, to be monitored is induced by the intraperitoneal (i.p.) administration of dilute acetic acid. 10 milliliters of 0.6% aqueous acetic acid is used per kg of body weight. Writhing is scored during the 15 minutes following acetic acid administration. In a first step, compounds are tested at 3 to 4 increasing doses, given by intravenous route, and at one unique pretreatment time (-5 minutes before acetic acid injection). […] In a second step, this submaximal effective dose for each specific peptide is administered at various pretreatment times (i.e. -5 minutes, -60 minutes, -120 minutes and -180 minutes) prior to the administration of the acetic acid in order to determine the duration of action. Throughout the test, a control group of mice are used which are administered only the vehicle without the candidate peptide. The number of writhes are counted over a 15-minute period, starting from the time of acetic acid injection, and bioactivity, i.e. antinociception, is expressed as a percentage, and is calculated as follows:
100×(writhes in control group-writhes in treated group)/writhes in
Values higher than 100% indicate greater antinociception than at the beginning of the experiment. It is felt that the opioid peptide should be effective to reduce writhing by at least about 25% at a time of 1 hour to be considered to have long duration of in vivo action.
In addition to using this test to determine duration of antinociceptive activity, it is also used to measure the in vivo biopotency (short term) of the peptide. This value is given in the table under the heading WT-ED50 in milligrams per kg of body weight. The value is a measure of the dosage necessary to reduce the number of writhes in the mouse being tested by 50% (as compared to a control mouse) over a period of 15 minutes.

| Compound | duration of antinociceptive bioactivity (duration of action) |
| --- | --- |
| CCCC[C@@H](NC(=O)[C@@H](Cc1ccccc1)NC(=O)[C@H](N)Cc1ccccc1)C(=O)N[C@H](CCCNC(C)C)C(=O)NCc1ccncc1 [Peptide 38, H-D-Phe-D-Phe-D-Nle-D-Ior-NH(4Pic)] | long duration of antinociceptive bioactivity |
| CCCC[C@@H](NC(=O)[C@@H](Cc1ccccc1)NC(=O)[C@H](N)Cc1ccc(F)cc1)C(=O)N[C@H](CCCCNC(=N)N)C(=O)NCc1ccncc1 [Peptide 91, H-D-4Fpa-D-Phe-D-Nle-D-Har-NH(4Pic)] (H-[dPhe(4-F)][dF][dNle][d(hArg)]-{NH(4-picolyl)}) | long duration of antinociceptive bioactivity |
| H-D-CMP-D-Phe-D-Nle-D-Arg-NH(4Pic) [Peptide 43] | long duration of antinociceptive bioactivity |
| CCCC[C@@H](NC(=O)[C@@H](Cc1ccccc1)NC(=O)[C@H](N)Cc1ccccc1)C(=O)N[C@H](CCCNC(=N)N)C(=O)NCc1ccncc1 [Peptide 8, H-D-Phe-D-Phe-D-Nle-D-Arg-NH(4-Pic)] (H-[dF][dF][dNle][dR]-{NH(4-picolyl)}) | long duration of antinociceptive bioactivity |
| CCCC[C@@H](NC(=O)[C@@H](Cc1ccccc1)NC(=O)[C@H](N)Cc1ccccc1)C(=O)N[C@H](Cc1ccc(CNC(=N)N)cc1)C(=O)N1CCOCC1 [Peptide 58, H-D-Phe-D-Phe-D-Nle-D-Gmf-Mor] | long duration of antinociceptive bioactivity |
| H-D-Phe-D-Phe-D-Acp-D-Arg-NH(4Pic) [Peptide 44] | long duration of antinociceptive bioactivity |
| H-D-Phe-D-Phe-D-Nle-D-Arg-NH-4Nhz [Peptide 40] | long duration of antinociceptive bioactivity |
| CCCC[C@@H](NC(=O)[C@@H](Cc1c[nH]c2ccccc12)NC(=O)[C@H](N)Cc1ccccc1)C(=O)N[C@H](CCCNC(=N)N)C(=O)N1CCOCC1 [Peptide 20, H-D-Phe-D-Trp-D-Nle-D-Arg-Mor] (H-[dF][dW][dNle][dR]-Morpholide) | long duration of antinociceptive bioactivity |
| CC(C)C[C@@H](NC(=O)[C@@H](Cc1ccc(Cl)c(Cl)c1)NC(=O)[C@H](N)Cc1cccs1)C(=O)N[C@H](CCCNC(=N)N)C(=O)N1CCOCC1 [Peptide 61, H-D-Ala(2Thi)-D-3,4Cpa-D-Leu-D-Arg-Mor] (H-[d2Thi][dPhe(3,4-Cl2)][dL][dR]-Morpholide) | long duration of antinociceptive bioactivity |
| CCCC[C@@H](NC(=O)[C@@H](Cc1ccccc1)NC(=O)[C@H](N)Cc1ccccc1)C(=O)N[C@H](CCCNC(=N)N)C(=O)Nc1nccs1 [Peptide 13, H-D-Phe-D-Phe-D-Nle-D-Arg-NH(2-Tzl)] (H-[dF][dF][dNle][dR]-{NH(thiazol-2-yl)}) | long duration of antinociceptive bioactivity |
| H-D-Phe-D-Phe-D-Nle-D-Har(Et2)-NHEt [Peptide 31] | long duration of antinociceptive bioactivity |
| CCCC[C@@H](NC(=O)[C@@H](Cc1ccccc1)NC(=O)[C@H](N)Cc1ccccc1)C(=O)N[C@H](CCCNC(=N)N)C(=O)N1CCOCC1 [Peptide 6, H-D-Phe-D-Phe-D-Nle-D-Arg-Mor] (H-[dF][dF][dNle][dR]-Morpholide) | long duration of antinociceptive bioactivity |
| CCCC[C@@H](NC(=O)[C@@H](Cc1ccccc1)NC(=O)[C@H](N)Cc1ccccc1)C(=O)N[C@H](CCCN)C(=O)NCC [Peptide 32, H-D-Phe-D-Phe-D-Nle-D-Orn-NHEt] | long duration of antinociceptive bioactivity |
| H-D-Phe-D-Phe-D-CML-D-Oro-Mor [Peptide 46] | long duration of antinociceptive bioactivity |
| CCCC[C@@H](NC(=O)[C@@H](Cc1ccccc1)NC(=O)[C@H](N)Cc1ccccc1)C(=O)N[C@H](CCCNC(=N)N)C(=O)N1CCNCC1 [Peptide 15, H-D-Phe-D-Phe-D-Nle-D-Arg-Ppz] (H-[dF][dF][dNle][dR]-{N(CH2CH2)2NH}) | long duration of antinociceptive bioactivity |
| CCCCNC(=O)[C@@H](CCCNC(=N)N)NC(=O)[C@@H](CCCC)NC(=O)[C@@H](Cc1ccccc1)NC(=O)[C@H](N)Cc1ccccc1 [Peptide 4, H-D-Phe-D-Phe-D-Nle-D-Arg-NHBu] (H-[dF][dF][dNle][dR]-NHBu) | long duration of antinociceptive bioactivity |
| H-D-Phe-D-Phe-D-Lcu-D-Lys-Mor [Peptide 49] | long duration of antinociceptive bioactivity |
| H-D-Phe-D-Phe-D-Nle-D-Arg-NH-4-Ahz [Peptide 41] | long duration of antinociceptive bioactivity |
| CCCC[C@@H](NC(=O)[C@@H](Cc1ccc(C)cc1)NC(=O)[C@H](N)Cc1ccccc1)C(=O)N[C@H](CCNC(=N)N)C(=O)N1CCOCC1 [Peptide 39, H-D-Phe-D-4Mpa-D-Nle-D-nArg-Mor] (H-[dF][dPhe(4-Me)][dNle][dAgb]-Morpholide) | long duration of antinociceptive bioactivity |
| CC(C)C[C@@H](NC(=O)[C@@H](Cc1ccccc1)NC(=O)[C@H](N)Cc1ccccc1)C(=O)N[C@](C)(CCCN)C(=O)NCc1ccncc1 [Peptide 96, H-D-Phe-D-Phe-D-Leu-D-CMO-NH(4Pic)] | long duration of antinociceptive bioactivity |
| CCCC[C@@H](NC(=O)[C@@H](Cc1ccccc1)NC(=O)[C@H](N)Cc1ccccc1)C(=O)N[C@H](CCCNC(=N)N)C(=O)NCc1cccnc1 [Peptide 54, H-D-Phe-D-Phe-D-Nle-D-Arg-NH(3Pic)] (H-[dF][dF][dNle][dR]-{NH(3-picolyl)}) | long duration of antinociceptive bioactivity |
| H-D-Phe-D-Phe-D-Nle-D-Har-Mor [Peptide 51] | long duration of antinociceptive bioactivity |
| CCNC(=O)[C@@H](CCCN)NC(=O)[C@@H](CC(C)C)NC(=O)[C@@H](Cc1ccccc1)NC(=O)[C@H](N)Cc1ccccc1 [Peptide 56, H-D-Phe-D-Phe-D-Leu-D-Orn-NHEt] | long duration of antinociceptive bioactivity |
| H-D-Phe-D-Phe-D-Hle-D-Arg-NH(4Pic) [Peptide 45] | long duration of antinociceptive bioactivity |
| CCCC[C@@H](NC(=O)[C@@H](Cc1ccc2ccccc2c1)NC(=O)[C@H](N)Cc1ccccc1)C(=O)N[C@H](CCCNC(=N)N)C(=O)NCc1ccncc1 [Peptide 24, H-D-Phe-D-2Nal-D-Nle-D-Arg-NH(4Pic)] (H-[dF][d2Nal][dNle][dR]-{NH(4-picolyl)}) | long duration of antinociceptive bioactivity |
| CC(C)C[C@@H](NC(=O)[C@@H](Cc1ccc(Cl)c(Cl)c1)NC(=O)[C@H](N)Cc1cccs1)C(=O)N[C@H](CCCNC(=N)N)C(=O)NCc1ccncc1 [Peptide 60, H-D-Ala(2Thi)-D-3,4Cpa-D-Leu-D-Arg-NH(4Pic)] (H-[d2Thi][dPhe(3,4-Cl2)][dL][dR]-{NH(4-picolyl)}) | long duration of antinociceptive bioactivity |
| CCCC[C@@H](NC(=O)[C@@H](Cc1ccccc1)NC(=O)[C@H](N)Cc1ccccc1)C(=O)N[C@H](CCCNC(=N)N)C(=O)NC1CCC(N)CC1 (stereo partly drawn) [Peptide 97, H-D-Phe-D-Phe-D-Nle-D-Arg-NH-Ahx] (H-[dF][dF][dNle][dR]-X5) | long duration of antinociceptive bioactivity |
| CCCC[C@@H](NC(=O)[C@@H](Cc1ccccc1)NC(=O)[C@H](N)Cc1ccccc1)C(=O)N[C@H](CCCNC(=N)N)C(=O)N1CCCCC1 [Peptide 12, H-D-Phe-D-Phe-D-Nle-D-Arg-Pip] (H-[dF][dF][dNle][dR]-Piperidide) | long duration of antinociceptive bioactivity |
| N=C(N)NCCC[C@@H](NC(=O)[C@@H](Cc1ccccc1)NC(=O)[C@@H](Cc1ccccc1)NC(=O)[C@H](N)Cc1ccccc1)C(=O)NCc1ccncc1 [Peptide 36, H-D-Phe-D-Phe-D-Phe-D-Arg-NH(4Pic)] (H-[dF][dF][dF][dR]-{NH(4-picolyl)}) | long duration of antinociceptive bioactivity |
| CCCC[C@@H](NC(=O)[C@@H](Cc1ccccc1)NC(=O)[C@H](N)Cc1ccccc1)C(=O)N[C@H](CCCCNC(C)C)C(=O)NCc1ccncc1 [Peptide 37, H-D-Phe-D-Phe-D-Nle-D-Ily-NH(4Pic)] | long duration of antinociceptive bioactivity |

From patent publication US5965701A, “Kappa receptor opioid peptides” (priority 1997, dated 1999)
